In patent publication US7678913B2, “Ureas as factor Xa inhibitors” (Portola Pharmaceuticals, Inc., priority 2004, dated 2010):
Some results were stated once for a whole list of compounds, not compound by compound.

Chains of the proteins cited; added tags and fusions are not shown. Residues count along the entry.
UniProt P00742, 41-179 partner limits assumed: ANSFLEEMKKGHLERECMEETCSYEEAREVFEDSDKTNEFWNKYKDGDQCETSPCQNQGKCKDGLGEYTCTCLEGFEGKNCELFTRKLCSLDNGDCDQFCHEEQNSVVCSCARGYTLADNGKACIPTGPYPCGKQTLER
UniProt P00742, 235-488 limits assumed: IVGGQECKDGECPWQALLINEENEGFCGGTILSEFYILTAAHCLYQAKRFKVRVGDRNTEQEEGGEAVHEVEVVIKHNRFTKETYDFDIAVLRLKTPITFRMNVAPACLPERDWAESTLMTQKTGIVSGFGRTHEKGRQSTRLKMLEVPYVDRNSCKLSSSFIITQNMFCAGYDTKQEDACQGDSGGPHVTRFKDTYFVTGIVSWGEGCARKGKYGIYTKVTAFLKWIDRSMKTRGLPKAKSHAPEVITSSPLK

Biological target: T1, human plasma protein factor Xa (Homo sapiens, UniProt P00742)
T1 construct: measure proteolytic activity of the enzyme (factor Xa); purchased Haematologic Technologies (Essex Junction, Vt.); host or cells: human plasma
Test: Factor Xa IC50 determination (cleavage of chromogenic substrate S-2765)
Type: biochemical
Settings: fXa 1 nM, S-2765 100 μM, Tris buffered saline pH 7.4, room temperature
From the text: This example illustrates methods for evaluating the compounds of the invention, along with results obtained for such assays. The in vitro and in vivo Factor Xa isoform activities of the inventive compounds can be determined by various procedures known in the art, such as a test for their ability to inhibit the activity of the Factor Xa isoform. […] The IC50 value is the concentration (in nM) of the compound required to provide 50% inhibition of Factor Xa isoform.
An in vitro assay for detecting and measuring inhibition activity against Factor Xa is as follows:
• The substrate S-2765 (Z-D-Arg-Gly-Arg-pNA.HCl) was obtained from Diapharma (West Chester, Ohio). Enzyme: • The human plasma protein factor Xa was purchased from Haematologic Technologies (Essex Junction, Vt.). Methods
All assays, which are performed in 96-well microtiter plates, measure proteolytic activity of the enzyme (factor Xa) by following cleavage of paranitroanilide substrate. The assay buffer used for proteolytic assays was Tris buffered saline (20 mM Tris, 150 mM NaCl, 5 mM CaCl2, 0.1% Bovine serum albumin (BSA), 5% Dimethly Sulfoxide (DMSO) pH 7.4). In a 96-well microtiter plate, inhibitor was serially diluted to give a range of concentrations from 0.01 nM to 10 μM (final). […] The degree of substrate hydrolysis was measured at 405 nm on a Thermomax plate reader (Molecular Devices, Sunnyvale, Calif.) for 2 minutes. […]

| SMILES | IC50 [nM] |
| --- | --- |
| CC(C)N1CCC(NC(=O)C(NC(=O)Nc2ccc(Cl)cc2)c2ccccc2Cl)CC1 (centres unmarked) [Example 103, N-(1-isopropylpiperidin-4-yl)-2-(2-chlorophenyl)-2-(4-chlorophenylamino-carbonylamino)-acetamide] | ≤ 100 |
| COc1ccccc1C(NC(=O)Nc1ccc(Cl)cc1)C(=O)NC1CCN(C(C)C)CC1 (centres unmarked) [Example 110, N-(1-isopropylpiperidin-4-yl)-2-(2-methoxyphenyl)-2-(4-chlorophenylamino-carbonylamino)-acetamide] | ≤ 100 |
